For this data set, the target named is T1, CD34 (orbital fibroblast lysate) (UniProt P28906).
T1 sequence (looked up, limits assumed): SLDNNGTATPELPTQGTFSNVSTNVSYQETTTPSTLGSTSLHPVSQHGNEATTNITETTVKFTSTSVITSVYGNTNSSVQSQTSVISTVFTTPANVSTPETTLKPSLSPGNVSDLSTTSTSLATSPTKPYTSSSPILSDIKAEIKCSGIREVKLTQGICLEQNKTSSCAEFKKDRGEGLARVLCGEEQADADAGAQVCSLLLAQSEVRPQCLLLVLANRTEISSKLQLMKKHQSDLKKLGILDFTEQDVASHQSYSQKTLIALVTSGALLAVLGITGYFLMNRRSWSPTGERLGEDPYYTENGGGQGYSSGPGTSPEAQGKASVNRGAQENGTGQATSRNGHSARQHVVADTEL
As to the kind of experiment: pull-down with immunoblot. The settings on record: 150 pmol aptamer, 100 ug lysate protein, 20% FBS and 0.1 mg/mL salmon sperm DNA block, 4 C overnight; flow cytometry at 4 C, 1 h; pull-down lysis buffer 5 mM MgCl2; protein in an extract; single-stranded DNA. (In general: In western blotting, separated proteins are transferred to a membrane and probed.)

For at least one entry, the source does not settle the construct or the ends of the probe. Where cells or extracts were used, other partners may take part. Tags and fusion partners may be left off the protein sequences shown.

“CAGCACCGTCAACTGAATCTCATTGCGGCGTCCGGCTGGACGTTATTGTTGGAACCGTGATGCGATGGAGATGT [CD34 Apt (biotin)]”: the binding result is listed as “binds”.

Values taken from paper PMC12380113.
